Data: ChEMBL document CHEMBL5674883, “The Heterochromatin Landscape in Migrating Cells and the Importance of H3K27me3 for Associated Transcriptome Alterations” (Cells, 2018)
The source gives many values for each of these; only a part stands here.

Amino acid sequences for entries named in this document (tags omitted).
UniProt Q61188, whole entry: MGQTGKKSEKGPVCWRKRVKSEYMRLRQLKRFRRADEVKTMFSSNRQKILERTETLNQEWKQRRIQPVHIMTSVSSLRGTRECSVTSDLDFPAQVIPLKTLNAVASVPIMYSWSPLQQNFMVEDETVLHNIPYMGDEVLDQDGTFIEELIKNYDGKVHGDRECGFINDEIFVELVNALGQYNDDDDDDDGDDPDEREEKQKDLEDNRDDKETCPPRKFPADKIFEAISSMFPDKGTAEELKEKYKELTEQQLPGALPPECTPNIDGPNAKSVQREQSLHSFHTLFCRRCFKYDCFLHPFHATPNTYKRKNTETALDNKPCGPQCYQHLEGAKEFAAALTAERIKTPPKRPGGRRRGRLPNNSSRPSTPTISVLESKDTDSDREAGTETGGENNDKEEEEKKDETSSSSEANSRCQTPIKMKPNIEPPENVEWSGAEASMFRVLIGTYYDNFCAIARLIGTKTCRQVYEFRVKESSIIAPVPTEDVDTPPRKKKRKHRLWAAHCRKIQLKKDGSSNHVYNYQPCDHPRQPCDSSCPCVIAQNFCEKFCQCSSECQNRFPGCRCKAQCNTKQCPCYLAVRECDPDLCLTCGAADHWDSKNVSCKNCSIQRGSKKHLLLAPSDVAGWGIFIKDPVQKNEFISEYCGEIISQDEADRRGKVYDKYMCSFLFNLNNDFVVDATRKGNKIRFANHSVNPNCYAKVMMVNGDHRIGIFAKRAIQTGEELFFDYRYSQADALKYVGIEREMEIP

Columns and labels:
Format in all cases: cell-based
[1] = biological target: T1, RNA polymerase II (Mus musculus) (UniProt P08775+Q8CFI7+P97760+A0A3Q4L2S8+Q80UW8+P61219+P62488+Q923G2+P60898+O08740+Q63871+P62876); test: Inhibition of RNA polymerase II in mouse B16-F1 migrating cells assessed as fold change in Fmnl2-RNA stability at 0.1 mM measured by ChIP-seq analysis relative to control cells
[2] = biological target: T1, RNA polymerase II (Mus musculus); test: Inhibition of RNA polymerase II in mouse B16-F1 migrating cells assessed as fold change in Cops2-RNA stability at 0.1 mM measured by ChIP-seq analysis relative to control cells
[3] = biological target: T1, RNA polymerase II (Mus musculus); test: Inhibition of RNA polymerase II in mouse B16-F1 migrating cells assessed as fold change in Gpr137-RNA stability at 0.1 mM measured by ChIP-seq analysis relative to control cells
[4] = biological target: T1, RNA polymerase II (Mus musculus); test: Inhibition of RNA polymerase II in mouse B16-F1 migrating cells assessed as fold change in Rpl9-RNA stability at 0.1 mM measured by ChIP-seq analysis relative to control cells
[5] = biological target: T1, RNA polymerase II (Mus musculus); test: Inhibition of RNA polymerase II in mouse B16-F1 migrating cells assessed as fold change in Atp6v0c-RNA stability at 0.1 mM measured by ChIP-seq analysis relative to control cells
[6] = biological target: T1, RNA polymerase II (Mus musculus); test: Inhibition of RNA polymerase II in mouse B16-F1 migrating cells assessed as fold change in Ankrd13c-RNA stability at 0.1 mM measured by ChIP-seq analysis relative to control cells
[7] = biological target: T1, RNA polymerase II (Mus musculus); test: Inhibition of RNA polymerase II in mouse B16-F1 migrating cells assessed as fold change in Pla2g2e-RNA stability at 0.1 mM measured by ChIP-seq analysis relative to control cells
[8] = biological target: T1, RNA polymerase II (Mus musculus); test: Inhibition of RNA polymerase II in mouse B16-F1 migrating cells assessed as fold change in Dynll1-RNA stability at 0.1 mM measured by ChIP-seq analysis relative to control cells
[9] = biological target: T1, RNA polymerase II (Mus musculus); test: Inhibition of RNA polymerase II in mouse B16-F1 migrating cells assessed as fold change in Mt1-RNA stability at 0.1 mM measured by ChIP-seq analysis relative to control cells
[10] = biological target: T1, RNA polymerase II (Mus musculus); test: Inhibition of RNA polymerase II in mouse B16-F1 migrating cells assessed as fold change in Ctxn1-RNA stability at 0.1 mM measured by ChIP-seq analysis relative to control cells
[11] = biological target: T1, RNA polymerase II (Mus musculus); test: Inhibition of RNA polymerase II in mouse B16-F1 migrating cells assessed as fold change in Pura-RNA stability at 0.1 mM measured by ChIP-seq analysis relative to control cells
[12] = biological target: T1, RNA polymerase II (Mus musculus); test: Inhibition of RNA polymerase II in mouse B16-F1 migrating cells assessed as fold change in Atxn10-RNA stability at 0.1 mM measured by ChIP-seq analysis relative to control cells
[13] = biological target: T1, RNA polymerase II (Mus musculus); test: Inhibition of RNA polymerase II in mouse B16-F1 migrating cells assessed as fold change in Ccnt1-RNA stability at 0.1 mM measured by ChIP-seq analysis relative to control cells
[14] = biological target: T1, RNA polymerase II (Mus musculus); test: Inhibition of RNA polymerase II in mouse B16-F1 migrating cells assessed as fold change in Timm10b-RNA stability at 0.1 mM measured by ChIP-seq analysis relative to control cells
[15] = biological target: T1, RNA polymerase II (Mus musculus); test: Inhibition of RNA polymerase II in mouse B16-F1 migrating cells assessed as fold change in Zfr-RNA stability at 0.1 mM measured by ChIP-seq analysis relative to control cells
[16] = biological target: T1, RNA polymerase II (Mus musculus); test: Inhibition of RNA polymerase II in mouse B16-F1 migrating cells assessed as fold change in Zfp992-RNA stability at 0.1 mM measured by ChIP-seq analysis relative to control cells
[17] = biological target: T1, RNA polymerase II (Mus musculus); test: Inhibition of RNA polymerase II in mouse B16-F1 migrating cells assessed as fold change in Trmt112-RNA stability at 0.1 mM measured by ChIP-seq analysis relative to control cells
[18] = biological target: Histone-lysine N-methyltransferase EZH2 (Mus musculus) (UniProt Q61188); test: Inhibition of EZH2 in mouse B16-F1 migrating cells assessed as fold change in H3K27me3-dependent regulated Cyp1a1-mRNA expression at 3 uM measured by ChIP-seq analysis relative to control cells
[19] = biological target: Histone-lysine N-methyltransferase EZH2 (Mus musculus) (UniProt Q61188); test: Inhibition of EZH2 in mouse B16-F1 migrating cells assessed as fold change in H3K27me3-buffered regulated Lrch3-mRNA expression at 3 uM measured by ChIP-seq analysis relative to control cells
[20] = biological target: Histone-lysine N-methyltransferase EZH2 (Mus musculus) (UniProt Q61188); test: Inhibition of EZH2 in mouse B16-F1 migrating cells assessed as fold change in H3K27me3-buffered regulated Dclk1-mRNA expression at 3 uM measured by ChIP-seq analysis relative to control cells
[21] = biological target: Histone-lysine N-methyltransferase EZH2 (Mus musculus) (UniProt Q61188); test: Inhibition of EZH2 in mouse B16-F1 migrating cells assessed as fold change in H3K27me3-buffered regulated Ell2-mRNA expression at 3 uM measured by ChIP-seq analysis relative to control cells
[22] = biological target: Histone-lysine N-methyltransferase EZH2 (Mus musculus) (UniProt Q61188); test: Inhibition of EZH2 in mouse B16-F1 migrating cells assessed as fold change in H3K27me3-buffered regulated Lrch1-mRNA expression at 3 uM measured by ChIP-seq analysis relative to control cells
[23] = biological target: Histone-lysine N-methyltransferase EZH2 (Mus musculus) (UniProt Q61188); test: Inhibition of EZH2 in mouse B16-F1 migrating cells assessed as fold change in H3K27me3-buffered regulated Ncapg2-mRNA expression at 3 uM measured by ChIP-seq analysis relative to control cells
[24] = biological target: Histone-lysine N-methyltransferase EZH2 (Mus musculus) (UniProt Q61188); test: Inhibition of EZH2 in mouse B16-F1 migrating cells assessed as fold change in H3K27me3-buffered regulated G0s2-mRNA expression at 3 uM measured by ChIP-seq analysis relative to control cells
[25] = biological target: Histone-lysine N-methyltransferase EZH2 (Mus musculus) (UniProt Q61188); test: Inhibition of EZH2 in mouse B16-F1 migrating cells assessed as fold change in H3K27me3-buffered regulated Cdc42ep3-mRNA expression at 3 uM measured by ChIP-seq analysis relative to control cells
[26] = biological target: Histone-lysine N-methyltransferase EZH2 (Mus musculus) (UniProt Q61188); test: Inhibition of EZH2 in mouse B16-F1 migrating cells assessed as fold change in H3K27me3-buffered regulated Gm4876-mRNA expression at 3 uM measured by ChIP-seq analysis relative to control cells
[27] = biological target: Histone-lysine N-methyltransferase EZH2 (Mus musculus) (UniProt Q61188); test: Inhibition of EZH2 in mouse B16-F1 migrating cells assessed as fold change in H3K27me3-buffered regulated Cbx7-mRNA expression at 3 uM measured by ChIP-seq analysis relative to control cells
[28] = biological target: Histone-lysine N-methyltransferase EZH2 (Mus musculus) (UniProt Q61188); test: Inhibition of EZH2 in mouse B16-F1 migrating cells assessed as fold change in H3K27me3-buffered regulated Snrnp48-mRNA expression at 3 uM measured by ChIP-seq analysis relative to control cells
[29] = biological target: Histone-lysine N-methyltransferase EZH2 (Mus musculus) (UniProt Q61188); test: Inhibition of EZH2 in mouse B16-F1 migrating cells assessed as fold change in H3K27me3-buffered regulated Gramd1a-mRNA expression at 3 uM measured by ChIP-seq analysis relative to control cells
[30] = biological target: Histone-lysine N-methyltransferase EZH2 (Mus musculus) (UniProt Q61188); test: Inhibition of EZH2 in mouse B16-F1 migrating cells assessed as fold change in H3K27me3-buffered regulated Carf-mRNA expression at 3 uM measured by ChIP-seq analysis relative to control cells

Q: For OC[C@H]1O[C@@H](n2cnc3cc(Cl)c(Cl)cc32)[C@H](O)[C@@H]1O, which log2FC [1] is on record?
A: -0.53

Q: And the log2FC [2]?
A: -0.8

Q: And the log2FC [3]?
A: 0.58

Q: What about the log2FC [4] of the same molecule?
A: 0.45

Q: And the log2FC [5]?
A: 0.44

Q: And the log2FC [6]?
A: -0.55

Q: What about the log2FC [7] of the same molecule?
A: 0.54

Q: And the log2FC [8]?
A: 0.42

Q: What about the log2FC [9] of the same molecule?
A: 0.72

Q: What about the log2FC [10] of the same molecule?
A: 0.72

Q: What about the log2FC [11] of the same molecule?
A: -0.57

Q: And the log2FC [12]?
A: 0.4

Q: And the log2FC [13]?
A: -0.53

Q: What about the log2FC [14] of the same molecule?
A: 0.45

Q: What about the log2FC [15] of the same molecule?
A: -0.73

Q: What about the log2FC [16] of the same molecule?
A: -0.86

Q: What about the log2FC [17] of the same molecule?
A: 0.51

Q: For CCCc1cc(C)[nH]c(=O)c1CNC(=O)c1cc(-c2ccnc(N3CCN(C)CC3)c2)cc2c1cnn2C(C)C, which log2FC [18] is on record?
A: 0.46

Q: What about the log2FC [19] of the same molecule?
A: -0.39

Q: What about the log2FC [20] of the same molecule?
A: 0.38

Q: What about the log2FC [21] of the same molecule?
A: 0.49

Q: What about the log2FC [22] of the same molecule?
A: -0.65

Q: And the log2FC [23]?
A: -0.42

Q: What about the log2FC [24] of the same molecule?
A: -1.01

Q: What about the log2FC [25] of the same molecule?
A: -0.93

Q: What about the log2FC [26] of the same molecule?
A: 0.46

Q: What about the log2FC [27] of the same molecule?
A: -0.56

Q: And the log2FC [28]?
A: -0.45

Q: And the log2FC [29]?
A: -0.42

Q: What about the log2FC [30] of the same molecule?
A: -0.48
